Results reported in a protein production outcome set (Wang et al. 2014).

Experiment: label from the status in PepcDB records
For “MLLMASYKKDEQEENHKWYLDSGASNHMCGRKSMFAELDESVRGNVALGDESKMEVKGKGNILIRLKNGDHQFISNGYYIPSMKTNILSLGQLLEKGYDIRLKDNNLSIRDQESNLITKVPMSKNRMFVLNIRNDIAQCLKMCYKEESWLWHLRFGHLNFGGLELLSRKEMVRGLPCINHPKQGCEVVFKFKAK”, the protein production was “failed”.
In the case of “MAANATTNPSQLLPLELVDKCIGSRIHIVMKSDKEIVGTLLGFDDFVNMVLEDVTEFEITPEGRRITKLDQILLNGNNITMLVPGGEGPEV”, the protein production is reported as “failed”.
With “MSGGLAPSKSTVYVSNLPFSLTNNDLYRIFSKYGKVVKVTIMKDKDTRKSKGVAFILFLDKDSAQNCTRAINNKQLFGRVIKASIAI” the protein production was “not failed”.
With “MESPPLYEISSSSSSEKPRHHFQSLDLFPNLNQNSCINNTLIEPLPLIDRINLNSNLDLNPNPLYAEEGEQEEEEEEEEDREVDVDLHIGLPGFGKPSNDAKQLKKRNGKEIATYDAGKGIENELSGKAYWIPAPEQILIGFTHFSCHVCFKTFNRYNNLQMHMWGHGSQYRKGPESLKGTQPRAMLGIPCYCCVEGCRNHIDHPRSKPLKDFRTLQTHYKRKHGHKPFSCRLCVGSSFYLSIVFEIGVWDINNLTLVDNDAAKKQLEFLMGGFKLLCQSEVQFLEMLTSMEETLKRMVCAVERIESRSISDDGRQLDLRIFTKGNPKSGLR” the protein production was “failed”.
With “MAIINRSKLTQTTMIKQILKRCSSLGKKQSSEYNDTHEHDGDSLPLDVPKGHFVVYVGGNRVRYVLPISFLTRPEFQLLLQQAEEEFGFDHNMGLTIPCEENETNSRDASKSDL” the protein production was “failed”.
With “TDVAARGIDINDLTHVVNYDIPQNPESYVHRIGRTGRAGKQGYAVTFVEPSEFRKFKYIQKIAKTEIRKEEVPDVKDIIGAKKRKIVSGIKEVLESGKYNDCENMAADLLEDADPQEVLSAVLKYALKDELSESNYK” the protein production was “failed”.
In the case of “MGRELVDKHMDKKANSLTASSTGSSDDNKVPSPSTNEAAEVKECTEQNLVADDARLRQQGITETPGSHKSSVKPRVTAKTTVPKPFSLSAEKPRRAAVDNNSLGNGASHNSSSASRVSQLNSPLPTRRIPDHKMHHDEEDSFSVASSSATSIRSFKPKITIGVAPTFSSTSRLERRREFYQKLEEKQKALEAEKRENEKRLKEEQEAVTKQLRKNMAYKANPVPSFYQEGPPPKQPLKKFPLTRPKSPNLNRRKSCSDTVNASYQEVKGKHCARHRHSVGGCKDEVKTNSVPRTPNSSSKDQMRKSKKGTPKSEEVHEMFNSGHDGETGENGVGVVEE”, the protein production is reported as “failed”.
For “MKSRMFMGRQKRQELLQKAEWLDTLSLHCGIGLWDAILHEGDAMHPKARWTWSSEFRRLCGYSSEAEFPNVVQSWSDRLHPDDVAPTFAAFTQTCQTGIGYDVKYRLKVKDGSYRWFRATGGVVLDENRKPRRACGSLVDIDELVKAENQKRDSIHQLANDFEGAIGKIVRTVSSASADLESSARQLATTADTSQHLAGNVAAASEEATSNVQSVASATDQLSSSIREISQQVQESARIAGEAVGQARNTTDRVSELSKAATRIGDVVELINTIAGQTNLLALNATIEAARAGEAGRGFSVVAAEVKALAEQTAKATGEIGQQISRIQSATQESVGAISEISGTIEKLSEISAHIASAVEEQGAATQEISRNIQQTAQGTERVSATILDVRRGAVETGTSSTQLLSSAQSLSQESGRLEDEVSRFLRTVRAS”, the protein production was “failed”.
For “YGYYSIGFARKDSGITSLADMKGKVFGFGDPNSTSGFLIPSIEIPQETGATMTSGDYFGEVKFTGGHEQTIVAVGNGEVDGGVTWADGLGAWEDGFNSGALRKAVDAGLVDMNDLVQIWQSKPIPEGPFVVRKALPA”, the protein production was “failed”.
With “MRFAIEQLGLLFGCQRVHVIYHDPAKDCLHMAEEWCAVGIAPRLSTFQGVPVATYPWLWANLQDSEGVLVRDVEQMPPEAEMDKVSLQFDLVKSILVVPMVKDAQVLGYISMVHLHDNYGWNPEELNLAKLVGQFLAIAQARHQAETTLTQAKEAADAANRAKTEFLASISHELRTPLNAIIGFSQLLHRDP” the protein production was “failed”.
In the case of “MTDYYEVLGVDRSASDDEIKKAYRKMSRKYHPDIAGPEFEDKFKEVNNAYDVLSDPKKRQMYDAGVDPNDPNAGGMHGGGFGGGFGDMGDIFSMFTGGGFGGTGGGPTPRTQPGRDALVSATIDLKTAVFGDTTHVKVNTFGLCQECGGTGCQNGTQPTQCPDCHGQGYAQRVVRTMLGQMMTTAPCERCEGHGTVIEKPCPSCLGHGRVRVTRNVGVAVPAGVANNTRLRLANQGEVGENGGVAGDLYVDIRIKPDDMFTRDDDDLHCWIKVPMSWAVLGHEVEIDTFDGRQTLDIPAGSQPDDTVTLKNLGVTHLDDKNERGDLVAHVVVEIPKKLSDDERELIERFGEMHDTDAQHVAVKSRPSSGAKKGFFSKLKDALR”, the protein production is reported as “failed”.
In the case of “MKIIVGIGGVTNGGKTTLTNKLINSLPNCCVVHQDDFFKPQDKIEVEDGFKQYDVITALDMEAMMSTIDGWQKDPAKFERSHGINNELDSEAPQDAEKREILHILIVEGFLLYTYKPLIDLFTKCYFLSVPYDECKRRRSSRNYTVPDPPGLFDGHVWPMYIKHKNIMEELTVNVEQLDGTNTREELFNRVYGDILDLINSKE”, the protein production is reported as “failed”.
For “NLAAKVELVDIQREGAXALHGGNDAPQRLRHCAVAEVRPALRRAVAGERFRLEFFVPPKASRPKISIPLSAIIEVRTTMPLEMPEKDNTFVLKVENGAEYILETIDSLQKHSWVADIQGCVD”, the protein production was “not failed”.
With “MSSGADGGGGAAVAARSDKGSPGEDGFVPSALGTREHWDAVYERELQTFREYGDTGEIWFGEESMNRLIRWMQKHKIPLDASVLDIGTGNGVFLVELAKFGFSNITGIDYSPSAIQLSGSIIEKEGLSNIKLKVEDFLNLSTQLSGFHICIDKGTFDAISLNPDNAIEKRKQYVKSLSRVLKVKGFFLITSCNWTKEELLNEFSEGWSTVAGFWLTAALTSWAQAIFSTSASRVGGTTGTHHHAWIIFVFLAETRFCHVVQAGLELLGSSDSPTWPPKVLGLYHARPSLAF” the protein production was “failed”.
For “MSTLTLPSDLRLPVTVFSGFLGAGKTTLLNRLLNNRDGLRVAVIVNDMSEVNIDAQLVRDGGAALSRTDETLVEFSNGCICCTLRDDLSKEVKRLALEQRYDYLLIESTGIGEPMPVAATFAVRDADGFCLSDVARLDTMVTVVDGSQFTALFSSMNTLADLGQQADSDDTRSLADLLGQQIEFADTIVISKCDLIDATQLARVRAVVRGLNRDAQIIEAHLGEVPLPQLVGTGRFDFTRAQLAPGWMRELRGEHTPETEEYGITSFVYRARRPFHPLRFNHLLAHGLSGVIRSKGFFWLASRMDWVGELSSVGSATRTQAAGFWYAARHRVDVHEENMPPQIGIAPLPYTELGWQRQQNDCWTAPLPAPHEVSDPGEYVAMQRLWHPQWGDRRQELAVIGLDMDKDVARNELDACLLSNEELRMGPMYWSALPDPFPQWRRLEHHHHHH”, the protein production was “failed”.
